Experiment [1] has as its target cynomolgus monkey PD-L1 on 293F cells (WBP315.293F.cPro1.2A) (cynomolgus monkey) (UniProt G7PSE7). Put plainly: flow cytometry on cynomolgus PD-L1 expressing 293F cells.
Experiment [2] has the same target. The experiment is described as follows: FACS on cynomolgus PD-L1 expressing 293F cells, FITC anti-human IgG.

These are yes or no findings as the source states them, for the method shown. Some results given as binding are weak or reduced against the parent protein; the word gives no strength.

B1: W3156-AP3R2-1A3-z12-hIgG1 (Fc fusion, not shown: small tags and cut ends)
chain: EVQLVESGGGLVQPGGSLRLSCAASGHFSNLAVNWFRQAPGKERELVAGILWSGGSTFYADSVKGRFTISRGNAENMLYLQMNSLRAEDTAVYYCNTGTNWGQGTLVTVSS
Take B1: the binding result in experiment [1] and in experiment [2] was “binds” throughout.
